Experimental data taken from the supplement of paper PMC8728848.
Some of the results follow.

Tests used:
Assay in all cases: glycan array binding signal (z-score within array); higher = stronger binding
Conditions in all cases: glycan notation: IUPAC condensed, linker removed
[1] = molecular target: Neu5Ac(a2-3)Gal(b1-3)GalNAc
Method in brief: (§1)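 The Consortium for Functional Glycomics database supplied 3228 glycan arrays, of which those lacking an available protein sequence were dropped. The binding signal, a within-array Z-score, was averaged across arrays of the same protein sequence and across linkers. Negative scores can be read as non-binding.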

[2] = molecular target: Neu5Ac(a2-3)Gal(b1-3)GalNAc(b1-3)Gal(a1-4)Gal(b1-4)Glc
Method in brief: as §1

[3] = molecular target: Neu5Ac(a2-3)Gal(b1-3)GalNAc(b1-4)Gal(b1-4)Glc
Method in brief: as §1

[4] = molecular target: Neu5Ac(a2-3)Gal(b1-3)GalNAc(b1-4)[Neu5Ac(a2-3)]Gal(b1-4)Glc
Method in brief: as §1

[5] = molecular target: Neu5Ac(a2-3)Gal(b1-3)GalNAc(b1-4)[Neu5Ac(a2-8)Neu5Ac(a2-3)]Gal(b1-4)Glc
Method in brief: as §1

[6] = molecular target: Neu5Ac(a2-3)Gal(b1-3)GalNAc6S
Method in brief: as §1

[7] = molecular target: Neu5Ac(a2-3)Gal(b1-3)GlcNAc
Method in brief: as §1

[8] = molecular target: Neu5Ac(a2-3)Gal(b1-3)GlcNAc(b1-2)Man
Method in brief: as §1

[9] = molecular target: Neu5Ac(a2-3)Gal(b1-3)GlcNAc(b1-2)Man(a1-3)[GlcNAc(b1-4)][Neu5Ac(a2-3)Gal(b1-3)GlcNAc(b1-2)Man(a1-6)]Man(b1-4)GlcNAc(b1-4)GlcNAc
Method in brief: as §1

[10] = molecular target: Neu5Ac(a2-3)Gal(b1-3)GlcNAc(b1-2)Man(a1-3)[Neu5Ac(a2-3)Gal(b1-3)GlcNAc(b1-2)Man(a1-6)]Man(b1-4)GlcNAc(b1-4)GlcNAc
Method in brief: as §1

[11] = molecular target: Neu5Ac(a2-3)Gal(b1-3)GlcNAc(b1-2)[Neu5Ac(a2-3)Gal(b1-3)GlcNAc(b1-4)]Man(a1-6)[Neu5Ac(a2-3)Gal(b1-3)GlcNAc(b1-2)Man(a1-3)]Man(b1-4)GlcNAc(b1-4)GlcNAc
Method in brief: as §1

[12] = molecular target: Neu5Ac(a2-3)Gal(b1-3)GlcNAc(b1-3)Gal(b1-3)GlcNAc
Method in brief: as §1

[13] = molecular target: Neu5Ac(a2-3)Gal(b1-3)GlcNAc(b1-3)Gal(b1-4)GlcNAc
Method in brief: as §1

[14] = molecular target: Neu5Ac(a2-3)Gal(b1-3)GlcNAc(b1-3)GalNAc
Method in brief: as §1

[15] = molecular target: Neu5Ac(a2-3)Gal(b1-3)GlcNAc(b1-6)GalNAc
Method in brief: as §1

[16] = molecular target: Neu5Ac(a2-3)Gal(b1-3)GlcNAc6S
Method in brief: as §1

[17] = molecular target: Neu5Ac(a2-3)Gal(b1-3)[Fuc(a1-4)]GlcNAc
Method in brief: as §1

[18] = molecular target: Neu5Ac(a2-3)Gal(b1-3)[Fuc(a1-4)]GlcNAc(b1-3)Gal(b1-3)[Fuc(a1-4)]GlcNAc
Method in brief: as §1

[19] = molecular target: Neu5Ac(a2-3)Gal(b1-3)[Fuc(a1-4)]GlcNAc(b1-3)Gal(b1-4)[Fuc(a1-3)]GlcNAc
Method in brief: as §1

[20] = molecular target: Neu5Ac(a2-3)Gal(b1-3)[GlcNAc(b1-6)]GalNAc
Method in brief: as §1

[21] = molecular target: Neu5Ac(a2-3)Gal(b1-3)[Neu5Ac(a2-6)]GalNAc
Method in brief: as §1

[22] = molecular target: Neu5Ac(a2-3)Gal(b1-3)[Neu5Ac(a2-6)]GlcNAc(b1-3)[Fuc(a1-3)[Gal(b1-4)]GlcNAc(b1-6)]Gal(b1-4)Glc
Method in brief: as §1

[23] = molecular target: Neu5Ac(a2-3)Gal(b1-3)]Neu5Ac(a2-3)Gal(b1-4)]GlcNAc
Method in brief: as §1

Neu5Ac(a2-3)Gal(b1-4)Glc = molecular target: Neu5Ac(a2-3)Gal(b1-4)Glc
Method in brief: as §1

[24] = molecular target: Neu5Ac(a2-3)Gal(b1-4)GlcNAc
Method in brief: as §1

[25] = molecular target: Neu5Ac(a2-3)Gal(b1-4)GlcNAc(b1-2)Man
Method in brief: as §1

[26] = molecular target: Neu5Ac(a2-3)Gal(b1-4)GlcNAc(b1-2)Man(a1-3)[GlcNAc(b1-4)][Neu5Ac(a2-3)Gal(b1-4)GlcNAc(b1-2)Man(a1-6)]Man(b1-4)GlcNAc(b1-4)GlcNAc
Method in brief: as §1

[27] = molecular target: Neu5Ac(a2-3)Gal(b1-4)GlcNAc(b1-2)Man(a1-3)[Neu5Ac(a2-3)Gal(b1-4)GlcNAc(b1-2)Man(a1-6)]Man(b1-4)GlcNAc(b1-4)GlcNAc
Method in brief: as §1

[28] = molecular target: Neu5Ac(a2-3)Gal(b1-4)GlcNAc(b1-2)Man(a1-3)[Neu5Ac(a2-3)Gal(b1-4)GlcNAc(b1-2)Man(a1-6)]Man(b1-4)GlcNAc(b1-4)[Fuc(a1-6)]GlcNAc
Method in brief: as §1

[29] = molecular target: Neu5Ac(a2-3)Gal(b1-4)GlcNAc(b1-2)Man(a1-3)[Neu5Ac(a2-6)Gal(b1-4)GlcNAc(b1-2)Man(a1-6)]Man(b1-4)GlcNAc(b1-4)GlcNAc
Method in brief: as §1

[30] = molecular target: Neu5Ac(a2-3)Gal(b1-4)GlcNAc(b1-2)[Neu5Ac(a2-3)Gal(b1-4)GlcNAc(b1-4)]Man(a1-3)[GlcNAc(b1-4)][Neu5Ac(a2-3)Gal(b1-4)GlcNAc(b1-2)[Neu5Ac(a2-3)Gal(b1-4)GlcNAc(b1-6)]Man(a1-6)]Man(b1-4)GlcNAc(b1-4)GlcNAc
Method in brief: as §1

[31] = molecular target: Neu5Ac(a2-3)Gal(b1-4)GlcNAc(b1-2)[Neu5Ac(a2-3)Gal(b1-4)GlcNAc(b1-4)]Man(a1-3)[GlcNAc(b1-4)][Neu5Ac(a2-3)Gal(b1-4)GlcNAc(b1-4)Man(a1-6)]Man(b1-4)GlcNAc(b1-4)GlcNAc
Method in brief: as §1

[32] = molecular target: Neu5Ac(a2-3)Gal(b1-4)GlcNAc(b1-2)[Neu5Ac(a2-3)Gal(b1-4)GlcNAc(b1-6)]Man(a1-6)[Neu5Ac(a2-3)Gal(b1-4)GlcNAc(b1-2)Man(a1-3)][GlcNAc(b1-4)]Man(b1-4)GlcNAc(b1-4)GlcNAc
Method in brief: as §1

[33] = molecular target: Neu5Ac(a2-3)Gal(b1-4)GlcNAc(b1-3)Gal
Method in brief: as §1

[34] = molecular target: Neu5Ac(a2-3)Gal(b1-4)GlcNAc(b1-3)Gal(b1-3)GlcNAc
Method in brief: as §1

[35] = molecular target: Neu5Ac(a2-3)Gal(b1-4)GlcNAc(b1-3)Gal(b1-4)GlcNAc
Method in brief: as §1

[36] = molecular target: Neu5Ac(a2-3)Gal(b1-4)GlcNAc(b1-3)Gal(b1-4)GlcNAc(b1-2)Man(a1-3)[Neu5Ac(a2-3)Gal(b1-4)GlcNAc(b1-3)Gal(b1-4)GlcNAc(b1-2)Man(a1-6)]Man(b1-4)GlcNAc(b1-4)GlcNAc
Method in brief: as §1

[37] = molecular target: Neu5Ac(a2-3)Gal(b1-4)GlcNAc(b1-3)Gal(b1-4)GlcNAc(b1-3)Gal(b1-4)GlcNAc
Method in brief: as §1

[38] = molecular target: Neu5Ac(a2-3)Gal(b1-4)GlcNAc(b1-3)Gal(b1-4)GlcNAc(b1-3)Gal(b1-4)GlcNAc(b1-2)Man(a1-3)[Neu5Ac(a2-3)Gal(b1-4)GlcNAc(b1-3)Gal(b1-4)GlcNAc(b1-3)Gal(b1-4)GlcNAc(b1-2)Man(a1-6)]GalNAc
Method in brief: as §1

[39] = molecular target: Neu5Ac(a2-3)Gal(b1-4)GlcNAc(b1-3)Gal(b1-4)GlcNAc(b1-3)GalNAc
Method in brief: as §1

[40] = molecular target: Neu5Ac(a2-3)Gal(b1-4)GlcNAc(b1-3)Gal(b1-4)GlcNAc(b1-3)[Neu5Ac(a2-3)Gal(b1-4)GlcNAc(b1-3)Gal(b1-4)GlcNAc(b1-6)]GalNAc
Method in brief: as §1

[41] = molecular target: Neu5Ac(a2-3)Gal(b1-4)GlcNAc(b1-3)Gal(b1-4)GlcNAc(b1-6)[Gal(b1-3)]GalNAc
Method in brief: as §1

[42] = molecular target: Neu5Ac(a2-3)Gal(b1-4)GlcNAc(b1-3)Gal(b1-4)[Fuc(a1-3)]GlcNAc
Method in brief: as §1

[43] = molecular target: Neu5Ac(a2-3)Gal(b1-4)GlcNAc(b1-3)GalNAc
Method in brief: as §1

[44] = molecular target: Neu5Ac(a2-3)Gal(b1-4)GlcNAc(b1-3)[Neu5Ac(a2-3)Gal(b1-4)GlcNAc(b1-6)]GalNAc
Method in brief: as §1

B1: Pwp7 (Candida glabrata) (protein)
chain: MGSSHHHHHHSSGLVPRGSHMASKNPVDFPNLCQYPNLDGAVAGFDTEIYNADPSILINFSLWPILQFPKEWHKTIGRAITTQTNFKLPASDTTLFGVSIPTQNILIEFRGYFIPPKSGTYTFALYLTDDGSAMFLGNDAAFPCGNITSWSNPTNDQVSVSDYDPKKKTLTVYMVAGVAYPLRIAYYNREKGGSLTASFVDPDGLTHSDWNGYIWTLPSCDNCKYS
For B1, the “glycan array binding signal (z-score)” value [1] was 0.382, the “glycan array binding signal (z-score)” value [2] was 0.137 and the “glycan array binding signal (z-score)” value [3] was -0.101. The “glycan array binding signal (z-score)” value [4] was 0.447, the “glycan array binding signal (z-score)” value [5] was 0.438 and the “glycan array binding signal (z-score)” value [6] was 0.695. For the same binder, the “glycan array binding signal (z-score)” value [7] was -0.487, the “glycan array binding signal (z-score)” value [8] was 0.574 and the “glycan array binding signal (z-score)” value [9] was 0.375. For the same binder, the “glycan array binding signal (z-score)” value [10] was -0.273, the “glycan array binding signal (z-score)” value [11] was 1.42 and the “glycan array binding signal (z-score)” value [12] was 0.274. For the same binder, the “glycan array binding signal (z-score)” value [13] was -0.467, the “glycan array binding signal (z-score)” value [14] was 0.451 and the “glycan array binding signal (z-score)” value [15] was -0.201. The “glycan array binding signal (z-score)” value [16] was -0.613, the “glycan array binding signal (z-score)” value [17] was -0.905 and the “glycan array binding signal (z-score)” value [18] was 0.517. For the same binder, the “glycan array binding signal (z-score)” value [19] was 0.414, the “glycan array binding signal (z-score)” value [20] was 1.97 and the “glycan array binding signal (z-score)” value [21] was 0.488. The “glycan array binding signal (z-score)” value [22] was 0.952, the “glycan array binding signal (z-score)” value [23] was 0.334 and the “glycan array binding signal (z-score)” value (Neu5Ac(a2-3)Gal(b1-4)Glc) was -0.417. The “glycan array binding signal (z-score)” value [24] was -1.2, the “glycan array binding signal (z-score)” value [25] was 1.25 and the “glycan array binding signal (z-score)” value [26] was 1.48. The “glycan array binding signal (z-score)” value [27] was 0.472, the “glycan array binding signal (z-score)” value [28] was 0.821 and the “glycan array binding signal (z-score)” value [29] was 0.678. The “glycan array binding signal (z-score)” value [30] was 0.267, the “glycan array binding signal (z-score)” value [31] was 0.163 and the “glycan array binding signal (z-score)” value [32] was 10.8. For the same binder, the “glycan array binding signal (z-score)” value [33] was -0.482, the “glycan array binding signal (z-score)” value [34] was 0.417 and the “glycan array binding signal (z-score)” value [35] was -0.686. For the same binder, the “glycan array binding signal (z-score)” value [36] was 1.08, the “glycan array binding signal (z-score)” value [37] was 0.639 and the “glycan array binding signal (z-score)” value [38] was 1.28. The “glycan array binding signal (z-score)” value [39] was 1.76, the “glycan array binding signal (z-score)” value [40] was 2.02 and the “glycan array binding signal (z-score)” value [41] was 1.16. The “glycan array binding signal (z-score)” value [42] was 0.981, the “glycan array binding signal (z-score)” value [43] was -0.11 and the “glycan array binding signal (z-score)” value [44] was 2.25.
